## Assay results

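Human SNB-19 astrocytoma cells given test compound one hour before Zika virus infection, with caspase-3/7 luminescence read after 6 hours. Compounds were run as a dilution series, mostly topping out near 45.7 µM. The number is the AC50, the concentration giving half of the maximal block of virus-induced caspase signal; lower values mean stronger potency. Calls follow curve class and an activity score, where 40–100 is active, 1–39 is inconclusive and 0 is inactive; these rows are inconclusive, mostly from poor fits or single-point effects.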

Values are in µM. All entries here are filed as inconclusive. Only part of the assay is shown, chiefly results filed as inconclusive. Potencies fitted to partial, single-point or poorly fitting curves are rough. Some entries filed as inconclusive have a full curve. Activity scores are not listed here. An entry listed twice with the same setting is a separate test.

structure	Potency (µM)	curve
O=c1[nH]c2ccccc2n1CCCN1CCN(C(c2ccccc2)c2ccccc2)CC1	14.13	inhibitor, single point
Cc1ccc(O)c(-n2nc3ccccc3n2)c1	7.943	inhibitor, full curve, poor fit
CCC1(c2ccccc2)C(=O)NCNC1=O	0.935	inhibitor, full curve, poor fit
C[C@H](Cc1ccccc1)Nc1ncnc2c1ncn2[C@@H]1O[C@H](CO)[C@@H](O)[C@H]1O	19.95	inhibitor, single point
N=C(N)N	14.13	inhibitor, single point
Clc1ccccc1-c1nc(-c2ccncc2)no1	7.943	inhibitor, full curve, poor fit
O=C(O)c1ccccc1C(=O)Nc1ccc(-c2ccccc2)cc1	37.22	inhibitor, single point
O=C(Nc1ccc(C(=O)O)c(O)c1)c1ccccc1	7.943	inhibitor, full curve, poor fit
CNC(=O)c1c(I)c(NC(=O)CCCCC(=O)Nc2c(I)c(C(=O)O)c(I)c(C(=O)NC)c2I)c(I)c(C(=O)O)c1I	7.08	inhibitor, full curve, poor fit
c1ccc(CCNc2nc(-c3ccccc3)cs2)cc1	7.943	inhibitor, full curve, poor fit
O=c1cc(-c2ccccc2)oc2cc(O)cc(O)c12	13.21	inhibitor, partial curve, poor fit
Cc1ccc2c(n1)Oc1ccc(C(C)C(=O)OCC(=O)N(C)C)cc1C2 (stereo unspecified)	8.912	inhibitor, full curve, poor fit
CC(C)NC[C@@H](O)c1ccc(O)c(O)c1	5.623	inhibitor, full curve, poor fit
CCCS(=O)c1ccc2nc(NC(=O)OC)[nH]c2c1 (stereo unspecified)	7.943	inhibitor, full curve, poor fit
CCc1ccc(OCc2ccccc2C(=O)Nc2ccc3nc(C)cc(N)c3c2)cc1	6.619	inhibitor, full curve
N[C@@H](Cc1c[nH]c2ccc(O)cc12)C(=O)O	14.13	inhibitor, single point
O=C(O)Cc1ccc(-c2ccccc2)cc1	39.81	inhibitor, single point
Cc1ccc2c(n1)Oc1ccc(C(C)C(=O)OCC(=O)N(C)C)cc1C2 (stereo unspecified)	12.59	inhibitor, partial curve
CCC(C(=O)O)c1ccc(N2Cc3ccccc3C2=O)cc1 (stereo unspecified)	8.912	inhibitor, partial curve, poor fit

Repeated from the top, 2 entries:

| structure | Potency (µM) | curve |
|---|---|---|
| `O=c1[nH]c2ccccc2n1CCCN1CCN(C(c2ccccc2)c2ccccc2)CC1` | 14.13 | inhibitor, single point |
| `Cc1ccc(O)c(-n2nc3ccccc3n2)c1` | 7.943 | inhibitor, full curve, poor fit |

Source: PubChem BioAssay AID1224859 (NCATS, 2016).